Results published in patent publication US8901118B2, “Compounds and methods for kinase modulation, and indications therefor” (Plexxikon Inc., priority 2010, dated 2014).
For at least one compound, name, drawing or mass did not settle the structure. Some results were stated once for a whole list of compounds, not compound by compound.

What was measured:
[1] = Relative solubility by turbidity in aqueous buffers (pH 1.5, 4.5, 6.8, 7.4); type: physicochemical; conditions: for turbidity threshold (L, M, H) 1.4: pH 1.5 (SGF); for turbidity threshold (L, M, H) 4.5: pH 4.5 (SIF); for turbidity threshold (L, M, H) 6.8: pH 6.8 (SIF); for turbidity threshold (L, M, H) 7.4: pH 7.4 (HEPES)
Method: As an indication of relative solubility, the turbidity of compounds in aqueous solutions is assessed. To assess possible compound properties in different physiological compartments, such as stomach, intestine, and blood, a series of aqueous buffers with varying pH is used. Thus each compound is diluted into four different physiologically relevant buffers and solution turbidity is measured by spectrophotometry.
Compounds are dissolved at a concentration of 25 mM in dimethyl sulfoxide, then serially diluted 1:1 into a 96 well plate, diluting 10 times in pure dimethyl sulfoxide, with the final well of each row a dimethyl sulfoxide blank. In an assay plate, 99 μL of appropriate buffer is added to each well, and 1 μL of each sample dilution is added to the buffer, achieving a range of final total concentrations in aqueous solutions having different pH. The buffers used are Simulated Gastric Fluid (SGF-pH 1.5) 0.5M NaCl, pH 1.5; Simulated Intestinal fluid (SIF-pH 4.5 and pH 6.8) 0.05M NaH2PO4, pH 4.5 and 6.8; and Hepes Buffer (HEPES-pH 7.4) 10 mM HEPES, 150 mM NaCl, pH 7.4. Control compounds pyrene, estriol and propranolol HCl are also assessed. Plates are spun and then mixed for 1 minute, and the absorbance is read using a Tecan Safire II to read wavelengths in the visible range (490, 535, and 650 nm) at four locations per well, reflecting the degree of turbidity present. The average optical density for each wavelength in each well is graphed vs. compound concentration, and the concentration at which the curve crosses a threshold O.D. of 0.01 for each wavelength is reported as the endpoint turbidity assay result. The average of the three wavelengths is used to compare turbidity of compounds.

[2] = test system: Osteoclast precursor cells; assay: Osteoclast differentiation assay (acid phosphatase readout); type: cell-based

Structure (SMILES): COc1ccc(Nc2ccc(C(=O)c3c[nH]c4ncnc(N5CCCCC5)c34)c(F)n2)cn1 [Compound P-4069, [2-fluoro-6-[(6-methoxy-3-pyridyl)amino]-3-pyridyl]-[4-(1-piperidyl)-7H-pyrrolo[2,3-d]pyrimidin-5-yl]methanone]
- turbidity threshold (L, M, H) 1.4 [1]: M (moderate solubility if the threshold concentration is 31.3 μM to 250 μM)
- turbidity threshold (L, M, H) 4.5 [1]: L (low solubility if the threshold concentration is <31.3 μM)
- turbidity threshold (L, M, H) 6.8 [1]: M (moderate solubility if the threshold concentration is 31.3 μM to 250 μM)
- turbidity threshold (L, M, H) 7.4 [1]: M (moderate solubility if the threshold concentration is 31.3 μM to 250 μM)
- activity in the osteoclast differentiation assay [2]: showed activity

Structure (SMILES): Clc1ccc(Nc2ncc(Cc3c[nH]c4ncc(Cl)cc34)cn2)cc1 [Compound P-3011, (4-Chloro-phenyl)-[5-(5-chloro-1H-pyrrolo[2,3-b]pyridin-3-ylmethyl)-pyrimidin-2-yl]-amine]
- turbidity threshold (L, M, H) 1.4 [1]: L (low solubility if the threshold concentration is <31.3 μM)
- turbidity threshold (L, M, H) 4.5 [1]: L (low solubility if the threshold concentration is <31.3 μM)
- turbidity threshold (L, M, H) 6.8 [1]: L (low solubility if the threshold concentration is <31.3 μM)
- turbidity threshold (L, M, H) 7.4 [1]: L (low solubility if the threshold concentration is <31.3 μM)

Structure (SMILES): O=C(c1ccc(Nc2ccc(C3CC3)nc2)nc1F)c1c[nH]c2ncnc(NCC(F)(F)F)c12 [Compound P-4090, [6-[(6-cyclopropyl-3-pyridyl)amino]-2-fluoro-3-pyridyl]-[4-(2,2,2-trifluoroethylamino)-7H-pyrrolo[2,3-d]pyrimidin-5-yl]methanone]
- turbidity threshold (L, M, H) 1.4 [1]: M (moderate solubility if the threshold concentration is 31.3 μM to 250 μM)
- turbidity threshold (L, M, H) 4.5 [1]: M (moderate solubility if the threshold concentration is 31.3 μM to 250 μM)
- turbidity threshold (L, M, H) 6.8 [1]: M (moderate solubility if the threshold concentration is 31.3 μM to 250 μM)
- turbidity threshold (L, M, H) 7.4 [1]: M (moderate solubility if the threshold concentration is 31.3 μM to 250 μM)
- activity in the osteoclast differentiation assay [2]: showed activity

Structure (SMILES): CCc1ccc(Nc2ccc(C(=O)c3c[nH]c4ncnc(NCC(C)(C)O)c34)c(F)n2)cn1 [Compound P-4064, [6-[(6-ethyl-3-pyridyl)amino]-2-fluoro-3-pyridyl]-[4-[(2-hydroxy-2-methyl-propyl)amino]-7H-pyrrolo[2,3-d]pyrimidin-5-yl]methanone]
- turbidity threshold (L, M, H) 1.4 [1]: H (high solubility if the threshold concentration is >250 μm)
- turbidity threshold (L, M, H) 4.5 [1]: M (moderate solubility if the threshold concentration is 31.3 μM to 250 μM)
- turbidity threshold (L, M, H) 6.8 [1]: L (low solubility if the threshold concentration is <31.3 μM)
- turbidity threshold (L, M, H) 7.4 [1]: L (low solubility if the threshold concentration is <31.3 μM)
- activity in the osteoclast differentiation assay [2]: showed activity

Structure (SMILES): COc1cncc(Nc2ccc(C(=O)c3c[nH]c4ncnc(NCC(F)(F)F)c34)c(F)n2)c1 [Compound P-4103, [2-fluoro-6-[(5-methoxy-3-pyridyl)amino]-3-pyridyl]-[4-(2,2,2-trifluoroethylamino)-7H-pyrrolo[2,3-d]pyrimidin-5-yl]methanone]
- activity in the osteoclast differentiation assay [2]: showed activity

Structure (SMILES): CCn1cc(Nc2ncc(Cc3c[nH]c4ncc(C)cc34)cn2)cn1 [Compound P-3036, (1-Ethyl-1H-pyrazol-4-yl)-[5-(5-methyl-1H-pyrrolo[2,3-b]pyridin-3-ylmethyl)-pyrimidin-2-yl]-amine]
- activity in the osteoclast differentiation assay [2]: showed activity

Structure (SMILES): COc1ncnc2[nH]cc(Cc3ccc(Nc4ccc(C)nc4)nc3F)c12 [Compound P-4010, [6-Fluoro-5-(4-methoxy-7H-pyrrolo[2,3-d]pyrimidin-5-ylmethyl)-pyridin-2-yl]-(6-methyl-pyridin-3-yl)-amine]
- activity in the osteoclast differentiation assay [2]: showed activity
